PubChem BioAssay AID1224826 – NIAID, 2016
Purpose: 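Knock-downs that raise or lower Tnf reporter signal after endotoxin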 (primary screen). System: RAW264.7 G9 macrophages from mouse bearing reporters for p65 (GFP) and the Tnf promoter (mCherry). Reagents: siRNA pool against mouse genes, 100 nM. Time to read-out: 16 h of LPS stimulation, after 2 days of siRNA transfection. Challenge: bacterial lipopolysaccharide (Salmonella minnesota R595), 10 ng/ml. Measured: 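Nuclear mCherry signal of the Tnf promoter reporter measured by imaging after background removal, scaled to each plate median and turned into robust z-scores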. Direction: Tnf reporter robust z-score: higher = stronger Tnf promoter reporter signal after LPS; Tnf reporter intensity: higher = stronger Tnf promoter reporter signal. Call rule: 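Called active when robust z-score is at most -1.3, matching the median of the Tlr4 knock-down control, or over 3; control wells and wells with under 50 cells never active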. Calls: active = Tnf reporter clearly lowered or raised; inactive = no clear change in Tnf reporter.
The deposit covers about 17,000 reagents; this is a random part of them. Of all reagents, about 1,110 (6.6%) got an active call. 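Active means lowered or raised reporter signal; replicate intensities are raw and not normalised per plate.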 Unmarked entries are inactive. Reagents against one gene are numbered here. Further read-outs or replicates are left out here.

Target gene	pool no.	Tnf reporter robust z-score	fewer than 50 cells in well	Tnf reporter intensity, replicate 1
Nanos3 (GeneID 244551)	1	-1.71 (active)	enough cells in well	97
Mal2 (GeneID 105853)	1	0.03	enough cells in well	226
Tifab (GeneID 212937)	1	0.68	enough cells in well	250
Cypt3 (GeneID 69361)	1	1.23	enough cells in well	276
Nppb (GeneID 18158)	1	-1.41 (active)	enough cells in well	109
Dbpht1 (retired record) (GeneID 20749)	1	-1.12	enough cells in well	161
Kmt5b (GeneID 225888)	1	1.49	enough cells in well	256
Taldo1 (GeneID 21351)	1	-0.97	enough cells in well	171
Adcy2 (GeneID 210044)	1	0.01	enough cells in well	272
Tbxas1 (GeneID 21391)	1	-1.12	enough cells in well	148
Mapk7 (GeneID 23939)	1	0.36	enough cells in well	206
Ahcy (GeneID 269378)	1	-0.72	enough cells in well	175
Corin (GeneID 53419)	1	1	enough cells in well	265
Art3 (GeneID 109979)	1	-0.94	enough cells in well	144
Onecut3 (GeneID 246086)	1		fewer than 50 cells per well; well left out of calls	9.96
Bola3 (GeneID 78653)	1		fewer than 50 cells per well; well left out of calls	138
Cdcp1 (GeneID 109332)	1	1.6	enough cells in well	267
Stag2 (GeneID 20843)	1	-0.24	enough cells in well	104
S100a10 (GeneID 20194)	1	0.2	enough cells in well	332
Fam120b (GeneID 67544)	1		fewer than 50 cells per well; well left out of calls	217
Frem2 (GeneID 242022)	1	1.29	enough cells in well	279
F9 (GeneID 14071)	1	1.23	enough cells in well	347
Depdc1b (GeneID 218581)	1	0.97	enough cells in well	202
Aldh1b1 (GeneID 72535)	1	-0.88	enough cells in well	138
Klhl12 (GeneID 240756)	1	-1.19	enough cells in well	123
Rai14 (GeneID 75646)	1	1.54	enough cells in well	184
Rph3al (GeneID 380714)	1	-0.44	enough cells in well	105
Txndc17 (GeneID 52700)	1	1.9	enough cells in well	193
Kcna5 (GeneID 16493)	1	0.13	enough cells in well	253
Vdac1 (GeneID 22333)	1		fewer than 50 cells per well; well left out of calls	75.7
Dram1 (GeneID 71712)	1	-0.39	enough cells in well	148
Pcdha10 (GeneID 12943)	1	1.82	enough cells in well	223
Dhrs7b (GeneID 216820)	1	0.21	enough cells in well	203
Ppp2r5c (GeneID 26931)	1	0.17	enough cells in well	270
Arhgap12 (GeneID 75415)	1	0.56	enough cells in well	215
Cep57l1 (GeneID 103268)	1		fewer than 50 cells per well; well left out of calls	124
Ptger1 (GeneID 19216)	1	-0.42	enough cells in well	263
Taar8a (GeneID 215859)	1	0.68	enough cells in well	265
Arhgap15 (GeneID 76117)	1	-0.52	enough cells in well	161
Mc4r (GeneID 17202)	1	0.31	enough cells in well	225
Mmp11 (GeneID 17385)	1	0.65	enough cells in well	366
Plat (GeneID 18791)	1	-0.46	enough cells in well	215
Scrn1 (GeneID 69938)	1	-0.56	enough cells in well	103
4833432B22RIK	1		fewer than 50 cells per well; well left out of calls	361
Fat4 (GeneID 329628)	1	-0.52	enough cells in well	165
Fat4 (GeneID 329628)	2	-1.08	enough cells in well	117
Ankrd17 (GeneID 81702)	1	-0.65	enough cells in well	171
Unc93b1 (GeneID 54445)	1		fewer than 50 cells per well; well left out of calls	59.9
Abi1 (GeneID 11308)	1	0.24	enough cells in well	214
Zscan20 (GeneID 269585)	1	0.54	enough cells in well	162
Zcchc18 (GeneID 66995)	1	-0.21	enough cells in well	233
Tmem63a (GeneID 208795)	1	-0.38	enough cells in well	206
Furin (GeneID 18550)	1	-0.64	enough cells in well	219
Grik4 (GeneID 110637)	1	0.3	enough cells in well	257
Fars2 (GeneID 69955)	1	0.01	enough cells in well	239
Fzd3 (GeneID 14365)	1	-0.47	enough cells in well	152
Apoh (GeneID 11818)	1	0.33	enough cells in well	179
Tvp23b (GeneID 67510)	1	0.38	enough cells in well	212
Slc6a5 (GeneID 104245)	1		fewer than 50 cells per well; well left out of calls	63.7
C530047H08Rik (GeneID 319358)	1	1.42	enough cells in well	151
Cx3cr1 (GeneID 13051)	1	0.56	enough cells in well	218
Fa2h (GeneID 338521)	1	2.52	enough cells in well	406
Pxt1 (GeneID 69307)	1	1.77	enough cells in well	329
Egfbp2 (GeneID 13647)	1	0.79	enough cells in well	194
Mtm1 (GeneID 17772)	1	0.48	enough cells in well	379
Pofut3 (GeneID 171167)	1	0.88	enough cells in well	391
Phgr1 (GeneID 53906)	1		fewer than 50 cells per well; well left out of calls	333
Smad3 (GeneID 17127)	1	1.11	enough cells in well	360
Syngr2 (GeneID 20973)	1	1.12	enough cells in well	154
Usp26 (GeneID 83563)	1	-0.35	enough cells in well	185
Arl15 (GeneID 218639)	1	1.96	enough cells in well	263
Tnfsf10 (GeneID 22035)	1	1.03	enough cells in well	396
Ccdc106 (GeneID 232821)	1	-0.6	enough cells in well	150
Map1lc3b (GeneID 67443)	1	-0.83	enough cells in well	142
Ubxn7 (GeneID 224111)	1	0	enough cells in well	186

Already shown: an excerpt of the list.
Target gene	pool no.	Tnf reporter robust z-score	fewer than 50 cells in well	Tnf reporter intensity, replicate 1
Zcchc18 (GeneID 66995)	1	-0.21	enough cells in well	233
Tmem63a (GeneID 208795)	1	-0.38	enough cells in well	206
Furin (GeneID 18550)	1	-0.64	enough cells in well	219
Grik4 (GeneID 110637)	1	0.3	enough cells in well	257
Fars2 (GeneID 69955)	1	0.01	enough cells in well	239
Fzd3 (GeneID 14365)	1	-0.47	enough cells in well	152
Apoh (GeneID 11818)	1	0.33	enough cells in well	179
Tvp23b (GeneID 67510)	1	0.38	enough cells in well	212
Slc6a5 (GeneID 104245)	1		fewer than 50 cells per well; well left out of calls	63.7
C530047H08Rik (GeneID 319358)	1	1.42	enough cells in well	151
Cx3cr1 (GeneID 13051)	1	0.56	enough cells in well	218
Fa2h (GeneID 338521)	1	2.52	enough cells in well	406
